{"source": "patent US4146614A", "about": "“Threonyl-valyline leucine containing peptides and pharmaceutical compositions” (State of Michigan, priority 1977, dated 1979)", "tested_on": "tryptophan uptake", "assay": "Tryptophan uptake inhibition (tryptophan uptake method)", "conditions": "determined at 10 minutes", "note": "Part of at least one peptide drawing is inferred or uncertain, most often the ends. Residues, ends and D or L forms follow the SMILES beside them. *: point of attachment. Bn = c1ccc(C*)cc1", "data": [{"smiles": "CC(=O)N[C@H](C(=O)N[C@H](C(=O)N[C@@H](CC(C)C)C(N)=O)C(C)C)[C@@H](C)OCc1ccccc1", "note": "[N-α-Acetyl-O-benzyl-threonylvalylleucinamide] (Ac-Thr(Bn)-Val-Leu-NH2)", "values": [{"measurement": "Tryptophan Uptake Inhibition %", "result": 0, "unit": "%"}]}]}
